Measured values: doi:10.1101/2021.08.12.456154
No constants are given. Whether binding was seen depends on the method and setting. In cells and extracts the contact can be indirect. Some results given as binding are weak or reduced against the parent protein; the word gives no strength.

Protein sequences, listed by entry. Tags and fused reporters are not part of them. Residues count along the entry.
UniProt Q05941, residues 23-502: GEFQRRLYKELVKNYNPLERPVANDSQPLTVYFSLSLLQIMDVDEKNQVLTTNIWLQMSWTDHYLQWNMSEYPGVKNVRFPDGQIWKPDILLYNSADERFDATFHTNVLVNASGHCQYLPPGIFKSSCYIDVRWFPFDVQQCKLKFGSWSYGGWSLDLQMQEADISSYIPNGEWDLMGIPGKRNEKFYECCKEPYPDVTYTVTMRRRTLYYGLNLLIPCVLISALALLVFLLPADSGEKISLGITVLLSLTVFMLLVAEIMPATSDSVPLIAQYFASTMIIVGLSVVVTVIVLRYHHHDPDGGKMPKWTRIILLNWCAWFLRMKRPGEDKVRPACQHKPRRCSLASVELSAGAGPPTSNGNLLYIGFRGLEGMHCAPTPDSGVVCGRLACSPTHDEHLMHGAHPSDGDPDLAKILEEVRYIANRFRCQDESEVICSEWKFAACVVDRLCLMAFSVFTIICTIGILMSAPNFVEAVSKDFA
UniProt Q5EGZ1, residues 18-805: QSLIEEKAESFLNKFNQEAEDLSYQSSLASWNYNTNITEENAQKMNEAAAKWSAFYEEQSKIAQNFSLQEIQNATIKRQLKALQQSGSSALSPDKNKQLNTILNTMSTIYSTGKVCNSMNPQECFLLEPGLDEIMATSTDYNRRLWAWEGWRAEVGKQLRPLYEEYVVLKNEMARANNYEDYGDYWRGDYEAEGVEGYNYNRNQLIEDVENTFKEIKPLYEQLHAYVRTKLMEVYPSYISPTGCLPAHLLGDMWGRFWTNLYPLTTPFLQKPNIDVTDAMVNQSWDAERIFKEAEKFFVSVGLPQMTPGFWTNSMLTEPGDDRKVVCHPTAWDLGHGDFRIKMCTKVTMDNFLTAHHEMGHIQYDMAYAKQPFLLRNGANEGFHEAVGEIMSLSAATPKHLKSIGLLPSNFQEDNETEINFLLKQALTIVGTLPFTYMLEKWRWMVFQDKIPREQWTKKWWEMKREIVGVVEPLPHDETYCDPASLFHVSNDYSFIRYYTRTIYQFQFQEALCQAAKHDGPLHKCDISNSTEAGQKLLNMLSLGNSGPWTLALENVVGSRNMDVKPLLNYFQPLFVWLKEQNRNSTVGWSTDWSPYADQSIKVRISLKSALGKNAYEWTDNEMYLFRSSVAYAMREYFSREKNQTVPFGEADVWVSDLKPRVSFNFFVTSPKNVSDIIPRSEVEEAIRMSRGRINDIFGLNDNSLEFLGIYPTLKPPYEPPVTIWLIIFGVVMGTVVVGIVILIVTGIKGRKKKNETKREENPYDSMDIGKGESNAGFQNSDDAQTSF

Biological target: α7 nicotinic acetylcholine receptor (rat (endogenous in PC12)) (UniProt Q05941)
Test: co-IP

angiotensin converting enzyme 2 (from UniProt Q5EGZ1 18-805)
binding: binds
